From PubChem BioAssay AID540276 (National Center for Advancing Translational Sciences (NCATS), 2011)
The whole screen tested about 300,000 compounds, of which about 5,400 (1.8%) were called active. This list was built around the results that the source calls inconclusive (neither active nor inactive); the mix of calls is not that of the screen. Calls follow the shape of the full dose curve; tested in HEK293 cells. Where the call is inconclusive, the potency comes from a doubtful curve fit.

Assay: qHTS for inhibitors of binding or entry into cells for Marburg Virus
Settings: Marburg virus pseudotyped entry inhibition, cell reporter; series mostly up to 37.8 µM
Potency is read from the fitted curve at half-maximal effect.

SMILES	Potency
Cc1cc2c(nc1C)CCCN2C[C@H](O)CN1CCCc2nc(-c3ccc(Br)cc3)ccc21	inactive
O=C(CCS(=O)(=O)c1ccc(F)cc1)N1CCN(c2ccccc2)CC1	inactive
CCS(=O)(=O)c1nnnn1-c1ccccc1S(C)(=O)=O	inconclusive: 25.9 µM [inhibitor, single point]
COc1cc(/C=C\C(=O)NCc2ccc3c(c2)cc(C)n3C)cc(OC)c1OC	active: 5.17 µM
CCSC1=NC2(CCCCC2)Nc2sc3c(c21)CCCC3	inconclusive: 2.91 µM [inhibitor, partial curve, poor fit]
Cc1ccc(S(=O)(=O)NCCNC(=O)c2cc(OCC(F)(F)F)ccc2OCC(F)(F)F)cc1	inconclusive: 20.6 µM [inhibitor, partial curve, poor fit]
CC(/C=N/NC(=O)c1ccco1)=C\c1ccccc1	inconclusive: 13 µM [inhibitor, partial curve, poor fit]
O=C(COc1ccccc1)NCCSCc1ccco1	inactive
Cc1ccc2[nH]c3c(c2c1)CN(C(=O)CN1CCN(Cc2ccc4c(c2)OCO4)CC1)CC3	inconclusive: 12.6 µM [inhibitor, partial curve, poor fit]
CC(C)(C)n1nnnc1C(c1ccc(C(F)(F)F)cc1)N(Cc1ccccc1)Cc1ccco1 (stereo not drawn)	inconclusive: 35.5 µM [inhibitor, single point]
Cc1ccc(C)c(CN2C(=O)c3ccccc3S(=O)(=O)c3ccc(C(=O)N(C)C4CCCCC4)cc32)c1	inconclusive: 35.5 µM [inhibitor, single point]
CN(c1ccc(C(=O)Nc2nccs2)cc1)S(=O)(=O)c1ccccc1	inconclusive: 23.1 µM [inhibitor, single point]
CCCCCCC1CC(CC(=O)Nc2ccc([N+](=O)[O-])cc2)C(=O)O1 (stereo not drawn)	inconclusive: 31.6 µM [activator, single point]
C/C(=N\NC(=O)c1ccccc1O)c1ccc(Br)s1	inconclusive: 35.5 µM [inhibitor, single point]
COc1ccc(N2CCN(C(=O)CCCn3nnnc3CN3CCOCC3)C(C)C2)cc1 (stereo not drawn)	inconclusive: 12.6 µM [activator, partial curve, poor fit]
CCn1nc(C(=O)Nc2nc3ccccc3[nH]2)c2ccccc2c1=O	inconclusive: 14.1 µM [inhibitor, single point]
Cc1cc(OC(=O)c2ccco2)c2c3c(c(=O)oc2c1)CCCC3	active: 11.2 µM
COc1ccccc1NC(=O)c1ccc(-c2ccccc2F)o1	inactive
O=C(COC(=O)c1ccc(Cl)c([N+](=O)[O-])c1)Nc1ccccc1OC(F)F	inconclusive: 2.82 µM [activator, partial curve, poor fit]
C/C(=C\C(=O)c1ccc(C)o1)Nc1ccc(C(=O)O)cc1C	inconclusive: 29.1 µM [activator, single point]
CC(=O)N1CCc2c(sc(NC(=O)CS(=O)(=O)c3ccc(F)cc3)c2C#N)C1	inconclusive: 0.631 µM [activator, single point]
COCCNc1ccc([N+](=O)[O-])cc1C(=O)Nc1cccc(C)n1	inconclusive: 1.26 µM [activator, partial curve, poor fit]
CCOC(=O)c1sc2nc(SCC#N)n(CC3CCCO3)c(=O)c2c1C (stereo not drawn)	inconclusive: 9.2 µM [inhibitor, partial curve, poor fit]

3 of these compounds in another layout.
CCSC1=NC2(CCCCC2)Nc2sc3c(c21)CCCC3
  Potency: inconclusive: 2.91 µM [inhibitor, partial curve, poor fit]
CC(/C=N/NC(=O)c1ccco1)=C\c1ccccc1
  Potency: inconclusive: 13 µM [inhibitor, partial curve, poor fit]
COc1ccc(N2CCN(C(=O)CCCn3nnnc3CN3CCOCC3)C(C)C2)cc1 (stereo not drawn)
  Potency: inconclusive: 12.6 µM [activator, partial curve, poor fit]

Continued.

SMILES	Potency
COc1cc(CNCc2ccccc2)c(Br)cc1OC1CCCC1	inconclusive: 35.5 µM [inhibitor, single point]
CCN(CC(=O)NCc1cccs1)C(=O)CCOc1ccccc1C	inactive
Cc1cccc(N/C=C(\[N+](=O)[O-])S(=O)(=O)c2ccccc2)c1	inconclusive: 6.31 µM [activator, single point]
CCC(C)(C)n1nnnc1C(c1ccc(O)cc1)N1CCc2ccccc2C1 (stereo not drawn)	inactive
COc1ccc(-c2cn3cc(C)ccc3n2)cc1OC	inconclusive: 0.73 µM [activator, partial curve, poor fit]
COc1ccccc1NC(=O)c1cnc(SCC(=O)NCC2CCCO2)n(C)c1=O (stereo not drawn)	inconclusive: 11.2 µM [inhibitor, partial curve, poor fit]
CCn1c(C)c(C2N3CC4(C)CN2CC(C)(C3)C4=O)c2ccccc21 (stereo not drawn)	inactive
CC1CC(C)CN(S(=O)(=O)c2ccc(NN)nc2)C1 (stereo not drawn)	inconclusive: 29.1 µM [inhibitor, single point]
CCCc1cc(-c2n[nH]c(=S)n2-c2cccc(C)c2)cs1	inconclusive: 3.55 µM [activator, partial curve, poor fit]
CN(Cc1ccccc1)C(=O)c1nc2ccccn2c1CN1CCc2sccc2C1	inconclusive: 35.5 µM [inhibitor, partial curve, poor fit]
COc1ccc(CC(=O)Oc2ccc(C(C)(C)C)cc2)cc1S(=O)(=O)N1CCOCC1	inactive
CCOC(=O)c1c(C)n(C)c2cc(Br)c(C)cc12	inactive
COc1ccc(NC(=O)N(O)C2(C#N)CCCCC2)cc1	inconclusive: 35.5 µM [activator, single point]
CC(C)(C)c1cc(C(=O)NNc2cc(C(F)(F)F)ccc2Cl)n(Cc2ccccc2)n1	inconclusive: 35.5 µM [inhibitor, single point]
CC12CN3CC(C)(CN(C1)C3c1ccc(Br)cc1O)C2 (stereo not drawn)	inconclusive: 0.562 µM [activator, full curve, poor fit]
CCC(Cc1ccccc1)n1c(=S)[nH]c2ccccc2c1=O (stereo not drawn)	inactive
COc1ccc(OC)c(/C=N/NC(=O)c2[nH]nc3c2CCc2ccccc2-3)c1	inactive
COc1ccc(C(=O)NC(=S)NNC(=O)c2cnccn2)cc1OC	inconclusive: 6.31 µM [inhibitor, single point]
O=C(Cc1ccccc1)Nn1c(O)c(/C=C2\C=Nc3ccccc32)sc1=S	inconclusive: 7.08 µM [inhibitor, partial curve]
C=CCN(Cc1nc(-c2ccccc2)no1)C(=O)c1ccco1	inactive
O=C(Nc1nnc(COc2ccccc2)s1)Nc1ccccc1F	inconclusive: 0.562 µM [inhibitor, partial curve, poor fit]
CCOc1ccc(CCNC(=O)CCCn2nc(C)c3sc4ccccc4c3c2=O)cc1	inconclusive: 11.2 µM [inhibitor, partial curve, poor fit]
CCOC(=O)c1ccc(NC(=O)CC2SC3=NCCN3C2=O)cc1 (stereo not drawn)	inconclusive: 6.31 µM [inhibitor, single point]

SMILES	Potency
O=C(Nc1cccc(S(=O)(=O)N2CCOCC2)c1)[C@@H]1CCCN1S(=O)(=O)c1ccc(Cl)cc1	inconclusive: 20.6 µM [inhibitor, single point]
CCCOC(=O)c1ccc(OCC(O)CN2CCN(C(=O)c3ccccc3)CC2)cc1 (stereo not drawn)	inactive
Cc1cccc(NC(=O)CCCCCn2c(=O)[nH]c3ccsc3c2=O)c1	inconclusive: 2.82 µM [inhibitor, partial curve, poor fit]
CCCn1c(O)c2ccc(C(=O)N=NC(=O)c3cccnc3)cc2c1O	inactive
CCCCN(C)CCCNC(=O)c1cc(-c2ccc(Br)s2)nc2ccccc12	inactive
COC(CNC(=O)c1ccc2c3c(onc13)-c1ccccc1C2=O)OC	inconclusive: 0.631 µM [activator, full curve, poor fit]
CCOC(=O)c1c(-c2ccccc2)n(C)c2ccc(O)cc12	inconclusive: 29.1 µM [inhibitor, single point]
O=C(NCC1CCCCC1)C1CCCN(C(=O)NC2CCCCC2)C1 (stereo not drawn)	inconclusive: 0.92 µM [inhibitor, full curve, poor fit]
COc1cccc(C(C(=O)NC2CCCC2)N(C(=O)c2ccco2)c2ccc(NC(C)=O)cc2)c1OC (stereo not drawn)	inactive
N#Cc1c(N2CCOCC2)nsc1-c1ccccc1	inactive
Cc1cccc(N2CCN(C(=O)c3cccc(S(=O)(=O)N4CCc5ccccc5C4)c3)CC2C)c1 (stereo not drawn)	inconclusive: 12.6 µM [inhibitor, single point]
CN(Cc1ccccc1)S(=O)(=O)c1cc(Br)cc2c1N(C(=O)C1CC1)CC2	inactive
Cc1cccc2nc(CSc3ccc(Cl)cc3)cn12	inconclusive: 3.16 µM [activator, single point]
S=C(NCCc1ccccc1)NC1CC1	inactive
CN(C)c1ccc(/C=N/NC(=S)NCc2ccco2)cc1	inconclusive: 16.4 µM [activator, partial curve, poor fit]
CC(C)N(C(=O)CSc1nnc(-c2cc3ccccc3cc2O)n1Cc1ccco1)C(C)C	inconclusive: 4.11 µM [inhibitor, partial curve, poor fit]
C=CCNC(=O)/C(=C\c1ccco1)NC(=O)c1ccco1	inconclusive: 6.31 µM [inhibitor, single point]
O=C(Nc1ccc(S(=O)(=O)N2CCCC2)cc1)c1ccc(Cl)nc1	inactive
COc1cccc(C(=O)Nc2ccc(-c3cc(C(F)(F)F)nn3-c3ccccc3)cc2)c1	inconclusive: 8.91 µM [inhibitor, partial curve]
COc1ccc(Cc2nnc(SCC(=O)c3ccc4c(c3)NC(=O)CO4)o2)cc1	inactive
CN1CCN(C(=O)c2ccc(COc3ccc(C(C)(C)C)cc3)o2)CC1	inactive
CC1Cc2ccccc2N1C(=O)CSc1nnnn1C1CCCC1 (stereo not drawn)	inconclusive: 31.6 µM [activator, single point]
